# Measured values taken from paper PMC3542343.
# Protein sequences, listed by entry. Tags and fused reporters are not part of them.
# UniProt P55064: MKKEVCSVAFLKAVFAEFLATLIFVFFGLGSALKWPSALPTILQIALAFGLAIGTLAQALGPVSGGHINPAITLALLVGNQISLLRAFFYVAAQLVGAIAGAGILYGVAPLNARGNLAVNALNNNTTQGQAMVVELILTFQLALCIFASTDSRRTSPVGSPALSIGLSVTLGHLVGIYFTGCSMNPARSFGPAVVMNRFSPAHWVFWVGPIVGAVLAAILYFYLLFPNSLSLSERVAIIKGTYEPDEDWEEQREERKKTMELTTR
# These are yes or no findings as the source states them, for the method shown. Binding seen in cells or lysates may run through a third protein. Some results given as binding are weak or reduced against the parent protein; the word gives no strength. Where a sequence is shown, tags or fusion partners need not be part of it.
# B1: green fluorescence protein (GFP)-AQP2 (protein, UniProt P41181 1-271)
# chain: MWELRSIAFSRAVFAEFLATLLFVFFGLGSALNWPQALPSVLQIAMAFGLGIGTLVQALGHISGAHINPAVTVACLVGCHVSVLRAAFYVAAQLLGAVAGAALLHEITPADIRGDLAVNALSNSTTAGQAVTVELFLTLQLVLCIFASTDERRGENPGTPALSIGFSVALGHLLGIHYTGCSMNPARSLAPAVVTGKFDDHWVFWIGPLVGAILGSLLYNYVLFPPAKSLSERLAVLKGLEPDTDWEEREVRRRQSVELHSPQSLPRGTKA
# Target: FLAG-AQP5 (human) (UniProt P55064)
# Assay: co-IP; GFP-AQP2 and FLAG-AQP5 co-expressed in 293T cells; IP-IB with antibodies as indicated in the figure; FLAG antibody used for immunoprecipitation
binder,measurement,value
B1,binding,binds
